Assay results from US12544348B2, “Methods for treating APOE4/4-associated disorders” (The Regents of the University of California, priority 2018, dated 2026).

Columns and labels:
[1] = test system: apoE4-KI mice; assay: Morris water maze (MWM) spatial learning and memory, aged apoE4-KI mice; type: in vivo; details: 0.02 or 0.2 mg/kg daily i.p.
Description: (§1) Mice. All protocols and procedures followed the guidelines of the Laboratory Animal Resource Center at the University of California, San Francisco (UCSF). All mice were housed under identical conditions from birth through death (12-hour light/dark cycle, housed 5/cage, PicoLab Rodent Diet 20). All mouse lines were maintained on a C57Bl/6J background. ApoE3-KI and apoE4-KI homozygous mouse lines (Taconic)^30,31 were born and aged under normal conditions at the Gladstone Institutes/UCSF animal facility. Female apoE-KI mice were used because of their susceptibility to AD-related neuronal and behavioral deficits. The ages of the mice are indicated in the behavioral testing section of the online methods. Bumetanide treatment. […] Body weight was measured weekly during bumetanide treatment; injection volume was calculated to achieve a dose of 0.02 (low) or 0.2 (high) mg bumetanide/kg body mass (e.g., 50-ul daily injection for a 20-g mouse). […] Performance was monitored with an Etho Vision video-tracking system (Noldus Information Technology). […] Behavior metrics are expressed as mean±SEM. […] The distribution of data was assessed with the Shapiro-Wilk normality test; most of the data were normally distributed. […]

[2] = test system: apoE3-KI mice; assay: Morris water maze (MWM) spatial learning and memory, aged apoE3-KI mice; type: in vivo; details: 0.02 or 0.2 mg/kg daily i.p.
Description: as §1

CCCCNc1cc(C(=O)O)cc(S(N)(=O)=O)c1Oc1ccccc1 [bumetanide, 3-(butylamino)-4-phenoxy-5-sulfamoylbenzoic acid]
swim speed during hidden platform trials [1]: did not significantly affect swim speed
visible trial performance (motor or vision impairment) [1]: no significant difference
swim speed during hidden platform trials [2]: did not significantly affect swim speed
visible trial performance (motor or vision impairment) [2]: no significant difference
